According to the supplement of paper PMC10849652:
This is one part of the list.

Sequences of proteins named here, by UniProt entry; tags and fusion partners are left off. A change or cut given only in a name is not applied to a line headed by its entry.
UniProt Q9UPS6, whole entry, looked up: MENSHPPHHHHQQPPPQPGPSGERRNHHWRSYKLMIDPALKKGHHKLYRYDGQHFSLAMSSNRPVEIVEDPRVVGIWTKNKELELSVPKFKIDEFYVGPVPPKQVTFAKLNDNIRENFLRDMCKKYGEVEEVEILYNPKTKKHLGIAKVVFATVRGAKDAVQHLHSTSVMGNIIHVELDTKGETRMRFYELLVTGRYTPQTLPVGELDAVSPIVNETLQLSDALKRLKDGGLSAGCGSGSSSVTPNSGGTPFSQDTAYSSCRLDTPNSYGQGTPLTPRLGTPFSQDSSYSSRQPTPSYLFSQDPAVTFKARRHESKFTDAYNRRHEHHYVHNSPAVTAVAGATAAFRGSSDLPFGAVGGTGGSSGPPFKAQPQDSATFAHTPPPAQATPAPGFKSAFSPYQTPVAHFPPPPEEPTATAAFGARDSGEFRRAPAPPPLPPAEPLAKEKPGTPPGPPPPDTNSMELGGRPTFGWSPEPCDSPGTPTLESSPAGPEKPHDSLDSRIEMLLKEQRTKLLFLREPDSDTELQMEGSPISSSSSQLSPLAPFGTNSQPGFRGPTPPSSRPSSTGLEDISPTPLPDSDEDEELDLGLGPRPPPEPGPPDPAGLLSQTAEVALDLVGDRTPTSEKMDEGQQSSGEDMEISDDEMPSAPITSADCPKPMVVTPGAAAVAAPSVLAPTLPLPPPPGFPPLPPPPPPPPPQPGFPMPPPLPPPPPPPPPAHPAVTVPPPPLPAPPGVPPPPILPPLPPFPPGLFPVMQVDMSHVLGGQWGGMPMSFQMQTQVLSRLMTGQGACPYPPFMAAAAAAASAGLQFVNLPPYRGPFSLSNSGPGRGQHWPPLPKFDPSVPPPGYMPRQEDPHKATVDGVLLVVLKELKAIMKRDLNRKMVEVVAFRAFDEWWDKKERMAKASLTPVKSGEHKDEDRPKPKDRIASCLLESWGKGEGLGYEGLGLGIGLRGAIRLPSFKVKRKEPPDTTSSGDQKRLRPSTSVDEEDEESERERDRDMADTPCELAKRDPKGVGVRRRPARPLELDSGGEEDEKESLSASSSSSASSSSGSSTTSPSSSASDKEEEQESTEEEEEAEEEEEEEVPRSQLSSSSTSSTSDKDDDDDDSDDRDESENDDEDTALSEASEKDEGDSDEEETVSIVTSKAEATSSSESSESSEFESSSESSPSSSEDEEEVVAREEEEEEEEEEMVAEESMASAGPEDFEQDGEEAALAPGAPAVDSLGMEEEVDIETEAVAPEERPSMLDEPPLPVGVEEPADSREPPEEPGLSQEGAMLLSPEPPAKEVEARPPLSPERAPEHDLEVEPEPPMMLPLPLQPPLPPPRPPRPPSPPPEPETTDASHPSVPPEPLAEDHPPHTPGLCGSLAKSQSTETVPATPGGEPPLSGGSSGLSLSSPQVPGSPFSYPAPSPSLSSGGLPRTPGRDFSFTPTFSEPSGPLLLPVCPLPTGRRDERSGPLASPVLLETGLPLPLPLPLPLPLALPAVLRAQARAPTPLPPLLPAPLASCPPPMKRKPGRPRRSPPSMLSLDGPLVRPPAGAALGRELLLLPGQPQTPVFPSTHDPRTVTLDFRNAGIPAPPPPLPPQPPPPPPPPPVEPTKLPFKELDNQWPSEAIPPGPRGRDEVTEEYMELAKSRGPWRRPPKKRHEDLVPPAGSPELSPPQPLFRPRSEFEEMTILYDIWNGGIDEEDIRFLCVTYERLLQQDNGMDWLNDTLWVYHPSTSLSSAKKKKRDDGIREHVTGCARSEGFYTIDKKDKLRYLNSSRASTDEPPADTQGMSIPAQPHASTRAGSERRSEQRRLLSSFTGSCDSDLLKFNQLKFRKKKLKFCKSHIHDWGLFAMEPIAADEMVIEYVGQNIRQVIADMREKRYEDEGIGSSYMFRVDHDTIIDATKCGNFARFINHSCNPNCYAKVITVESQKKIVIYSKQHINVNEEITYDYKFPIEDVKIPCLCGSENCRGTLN
UniProt Q9UIV8: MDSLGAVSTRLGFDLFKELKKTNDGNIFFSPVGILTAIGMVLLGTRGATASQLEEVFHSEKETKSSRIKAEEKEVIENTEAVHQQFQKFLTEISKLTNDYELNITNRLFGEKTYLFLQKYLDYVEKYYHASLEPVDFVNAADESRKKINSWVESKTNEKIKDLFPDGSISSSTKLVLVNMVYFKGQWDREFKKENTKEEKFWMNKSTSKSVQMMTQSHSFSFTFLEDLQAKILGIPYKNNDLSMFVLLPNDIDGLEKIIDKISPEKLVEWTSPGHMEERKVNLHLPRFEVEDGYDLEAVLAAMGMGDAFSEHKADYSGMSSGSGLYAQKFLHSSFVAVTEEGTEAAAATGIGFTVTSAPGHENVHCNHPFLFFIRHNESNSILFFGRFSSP
UniProt Q01105, whole entry, looked up: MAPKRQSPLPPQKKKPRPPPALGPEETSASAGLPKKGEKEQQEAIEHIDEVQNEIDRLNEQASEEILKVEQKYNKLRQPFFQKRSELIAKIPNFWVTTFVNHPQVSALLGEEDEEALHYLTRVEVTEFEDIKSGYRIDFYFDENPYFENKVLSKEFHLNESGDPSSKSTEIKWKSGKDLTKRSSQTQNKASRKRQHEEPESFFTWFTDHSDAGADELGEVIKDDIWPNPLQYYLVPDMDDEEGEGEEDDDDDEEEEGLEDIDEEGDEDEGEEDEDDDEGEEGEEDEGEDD
UniProt Q9Y2K2: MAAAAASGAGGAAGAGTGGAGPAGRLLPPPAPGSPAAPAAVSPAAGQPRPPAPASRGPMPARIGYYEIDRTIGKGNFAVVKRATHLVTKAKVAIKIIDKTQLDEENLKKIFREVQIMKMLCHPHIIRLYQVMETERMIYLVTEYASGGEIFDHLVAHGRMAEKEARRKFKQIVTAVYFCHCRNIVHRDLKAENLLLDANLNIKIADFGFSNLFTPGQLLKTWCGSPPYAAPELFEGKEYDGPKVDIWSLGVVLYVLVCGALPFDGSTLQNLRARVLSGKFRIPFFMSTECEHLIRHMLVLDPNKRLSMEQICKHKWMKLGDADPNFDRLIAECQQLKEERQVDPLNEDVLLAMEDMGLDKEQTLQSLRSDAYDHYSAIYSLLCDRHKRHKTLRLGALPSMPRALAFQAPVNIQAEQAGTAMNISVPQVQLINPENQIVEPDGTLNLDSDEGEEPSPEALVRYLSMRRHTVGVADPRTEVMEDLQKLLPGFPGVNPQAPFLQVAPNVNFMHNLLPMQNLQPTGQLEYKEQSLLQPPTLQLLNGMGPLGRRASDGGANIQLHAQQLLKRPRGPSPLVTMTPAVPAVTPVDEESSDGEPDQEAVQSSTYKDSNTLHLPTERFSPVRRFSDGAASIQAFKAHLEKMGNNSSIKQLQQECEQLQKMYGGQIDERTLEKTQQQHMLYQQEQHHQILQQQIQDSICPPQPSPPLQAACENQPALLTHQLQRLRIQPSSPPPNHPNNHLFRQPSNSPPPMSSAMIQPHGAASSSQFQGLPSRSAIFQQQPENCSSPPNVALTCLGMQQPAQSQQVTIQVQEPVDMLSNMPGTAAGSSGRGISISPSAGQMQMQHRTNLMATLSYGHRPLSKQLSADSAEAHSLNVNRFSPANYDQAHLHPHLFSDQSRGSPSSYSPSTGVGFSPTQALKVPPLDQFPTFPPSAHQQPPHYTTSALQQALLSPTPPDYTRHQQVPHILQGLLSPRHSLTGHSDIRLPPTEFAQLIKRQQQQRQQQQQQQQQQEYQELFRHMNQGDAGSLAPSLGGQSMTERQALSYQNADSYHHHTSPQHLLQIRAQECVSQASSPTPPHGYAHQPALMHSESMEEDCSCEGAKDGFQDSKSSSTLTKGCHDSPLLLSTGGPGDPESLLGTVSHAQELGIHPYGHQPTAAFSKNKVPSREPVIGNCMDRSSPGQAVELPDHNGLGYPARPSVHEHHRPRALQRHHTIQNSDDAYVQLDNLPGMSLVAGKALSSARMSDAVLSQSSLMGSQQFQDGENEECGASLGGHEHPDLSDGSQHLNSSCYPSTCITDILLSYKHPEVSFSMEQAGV
UniProt P09131: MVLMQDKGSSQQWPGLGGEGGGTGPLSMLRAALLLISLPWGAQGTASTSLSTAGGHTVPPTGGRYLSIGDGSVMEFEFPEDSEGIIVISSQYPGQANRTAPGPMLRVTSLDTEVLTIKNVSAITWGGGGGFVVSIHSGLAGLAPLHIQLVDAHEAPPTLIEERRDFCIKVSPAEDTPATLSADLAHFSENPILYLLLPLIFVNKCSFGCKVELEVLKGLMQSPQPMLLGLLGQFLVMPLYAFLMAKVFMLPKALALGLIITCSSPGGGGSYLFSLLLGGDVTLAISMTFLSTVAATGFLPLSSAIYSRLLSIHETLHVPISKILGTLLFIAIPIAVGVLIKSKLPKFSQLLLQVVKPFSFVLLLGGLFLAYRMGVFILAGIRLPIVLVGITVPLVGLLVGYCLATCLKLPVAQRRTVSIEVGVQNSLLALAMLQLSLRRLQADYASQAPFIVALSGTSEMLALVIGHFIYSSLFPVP
UniProt O75635: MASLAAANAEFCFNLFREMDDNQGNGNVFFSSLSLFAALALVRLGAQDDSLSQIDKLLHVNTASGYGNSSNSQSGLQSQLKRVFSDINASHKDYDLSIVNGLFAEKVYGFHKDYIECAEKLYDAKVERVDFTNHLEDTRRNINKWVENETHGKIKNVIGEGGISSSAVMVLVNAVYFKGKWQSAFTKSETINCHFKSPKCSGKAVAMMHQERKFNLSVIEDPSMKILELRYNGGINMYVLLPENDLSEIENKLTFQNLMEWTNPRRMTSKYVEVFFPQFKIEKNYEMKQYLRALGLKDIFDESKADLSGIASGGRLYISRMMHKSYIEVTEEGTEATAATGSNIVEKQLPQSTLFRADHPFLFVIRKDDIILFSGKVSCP
UniProt P51688: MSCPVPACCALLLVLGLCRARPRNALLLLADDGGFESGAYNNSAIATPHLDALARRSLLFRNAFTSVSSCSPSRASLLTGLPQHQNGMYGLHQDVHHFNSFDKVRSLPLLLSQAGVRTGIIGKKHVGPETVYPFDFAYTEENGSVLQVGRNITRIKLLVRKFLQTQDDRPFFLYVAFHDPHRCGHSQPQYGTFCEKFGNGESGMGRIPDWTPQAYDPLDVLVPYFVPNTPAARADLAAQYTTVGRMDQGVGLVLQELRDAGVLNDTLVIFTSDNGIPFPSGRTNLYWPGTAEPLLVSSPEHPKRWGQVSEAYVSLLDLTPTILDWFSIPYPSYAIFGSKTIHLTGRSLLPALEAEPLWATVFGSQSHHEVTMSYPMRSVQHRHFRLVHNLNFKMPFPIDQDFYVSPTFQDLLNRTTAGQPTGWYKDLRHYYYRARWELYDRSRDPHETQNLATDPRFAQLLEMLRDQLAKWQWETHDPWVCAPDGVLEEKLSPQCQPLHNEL
UniProt Q96EP9: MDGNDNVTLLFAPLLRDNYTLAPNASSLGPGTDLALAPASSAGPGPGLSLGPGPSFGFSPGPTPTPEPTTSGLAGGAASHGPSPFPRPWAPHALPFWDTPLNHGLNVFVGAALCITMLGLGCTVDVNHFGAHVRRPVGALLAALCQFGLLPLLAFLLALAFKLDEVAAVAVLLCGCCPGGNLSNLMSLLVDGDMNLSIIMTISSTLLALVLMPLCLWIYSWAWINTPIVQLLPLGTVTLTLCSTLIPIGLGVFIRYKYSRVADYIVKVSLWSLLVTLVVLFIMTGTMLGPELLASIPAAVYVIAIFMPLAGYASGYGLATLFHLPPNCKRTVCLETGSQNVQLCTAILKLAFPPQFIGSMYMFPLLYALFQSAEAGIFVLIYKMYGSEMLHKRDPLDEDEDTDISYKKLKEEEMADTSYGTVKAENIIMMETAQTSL
UniProt Q9UQQ2: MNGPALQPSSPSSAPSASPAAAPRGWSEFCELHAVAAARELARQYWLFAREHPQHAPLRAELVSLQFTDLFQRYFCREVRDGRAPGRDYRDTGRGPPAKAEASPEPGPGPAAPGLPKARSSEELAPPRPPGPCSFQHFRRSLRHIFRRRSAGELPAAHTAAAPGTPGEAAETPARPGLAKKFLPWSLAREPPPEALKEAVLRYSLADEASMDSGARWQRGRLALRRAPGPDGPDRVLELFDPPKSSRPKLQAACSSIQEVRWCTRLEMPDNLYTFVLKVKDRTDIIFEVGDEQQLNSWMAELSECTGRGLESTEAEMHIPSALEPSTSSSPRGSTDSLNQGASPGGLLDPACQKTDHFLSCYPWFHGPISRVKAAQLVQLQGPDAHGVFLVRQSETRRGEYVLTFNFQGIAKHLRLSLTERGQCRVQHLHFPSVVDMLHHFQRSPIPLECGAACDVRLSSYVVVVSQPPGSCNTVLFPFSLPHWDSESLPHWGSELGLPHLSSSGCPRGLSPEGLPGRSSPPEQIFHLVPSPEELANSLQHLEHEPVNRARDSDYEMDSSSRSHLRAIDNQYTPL
UniProt Q8WV19: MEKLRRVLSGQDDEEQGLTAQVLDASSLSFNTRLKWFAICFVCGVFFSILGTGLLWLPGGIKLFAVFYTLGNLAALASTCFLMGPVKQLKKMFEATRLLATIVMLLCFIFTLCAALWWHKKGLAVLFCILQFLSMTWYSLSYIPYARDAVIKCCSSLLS

Tests used:
Assay in all cases: log2 fold change, soluble protein after heating vs DMSO (PISA); higher = thermal stabilisation; K562 lysate, 10 uM; active = over 0.2 and 3.5 SD of the protein, either way, in both replicates (recomputed)
duvelisib = compound: C[C@H](Nc1ncnc2nc[nH]c12)c1cc2cccc(Cl)c2c(=O)n1-c1ccccc1 [duvelisib]
Procedure, shortened: (§1)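 Log-two fold change in thermal stability relative to solvent controls is reported from duplicates. For each sample, crude K562 extract from dounce-homogenised pellets in PBS pH 7.4 with 1 mM MgCl2, at 1 mg/mL protein, was treated with 10 μM compound for 30 min. Aliquots heated for 3 min across 48°C-58°C were pooled, brought to 0.5% NP-40 at 4°C and cleared at 21,000xg for 90 min. The supernatant was quantified by TMTpro 16plex LC-MS/MS with channel sums equalised.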

pictilisib = compound: CS(=O)(=O)N1CCN(Cc2cc3nc(-c4cccc5[nH]ncc45)nc(N4CCOCC4)c3s2)CC1 [pictilisib]
Procedure, shortened: as §1

crizotinib = compound: C[C@@H](Oc1cc(-c2cnn(C3CCNCC3)c2)cnc1N)c1c(Cl)ccc(F)c1Cl [crizotinib]
Procedure, shortened: as §1

[1] = compound: C[C@H](C1=CC=C(C=C1)C(=O)NC2=C3C=CNC3=NC=C2)N
Procedure, shortened: as §1

gandotinib = compound: Cc1cc(Nc2cc(CN3CCOCC3)c3nc(C)c(Cc4ccc(Cl)cc4F)n3n2)n[nH]1 [gandotinib]
Procedure, shortened: as §1

doramapimod = compound: Cc1ccc(-n2nc(C(C)(C)C)cc2NC(=O)Nc2ccc(OCCN3CCOCC3)c3ccccc23)cc1 [doramapimod]
Procedure, shortened: as §1

bafetinib = compound: Cc1ccc(NC(=O)c2ccc(CN3CC[C@H](N(C)C)C3)c(C(F)(F)F)c2)cc1Nc1nccc(-c2cncnc2)n1 [bafetinib]
Procedure, shortened: as §1

[2] = compound: Cc1cccc(CC(=O)N2CCc3c2ccc(-c2cn(C)c4ncnc(N)c24)c3F)n1
Procedure, shortened: as §1

tozasertib = compound: Cc1cc(Nc2cc(N3CCN(C)CC3)nc(Sc3ccc(NC(=O)C4CC4)cc3)n2)n[nH]1 [tozasertib]
Procedure, shortened: as §1

lapatinib = compound: CS(=O)(=O)CCNCc1ccc(-c2ccc3ncnc(Nc4ccc(OCc5cccc(F)c5)c(Cl)c4)c3c2)o1 [lapatinib]
Procedure, shortened: as §1

Measured: log2 fold change

SETD6 (UniProt Q8TBK2)
inactive: duvelisib 0.233

SETD1B (UniProt Q9UPS6)
inactive: pictilisib -0.026 | crizotinib -0.023 | [1] 0.081 | duvelisib 0.102 | gandotinib -0.214 | doramapimod 0.127 | bafetinib 0.001 | [2] 0.156

SH2D1B (UniProt O14796)
inactive: crizotinib -0.032 | [1] -0.049 | duvelisib 0.003 | gandotinib 0.023 | tozasertib -0.077 | doramapimod -0.001 | [2] 0.105

SERPINB13 (UniProt Q9UIV8)
inactive: pictilisib 0.565 | bafetinib -0.117

SERPINF2 (UniProt P08697)
inactive: pictilisib -0.017 | crizotinib 0.074 | [1] 0.332 | gandotinib 0.01 | tozasertib -0.015 | doramapimod -0.185 | bafetinib -0.016 | [2] -0.024

SKIL (UniProt P12757)
inactive: [1] 0.009 | gandotinib -0.076 | tozasertib -0.033 | [2] 0.132

SET isoform 3 (UniProt Q01105)
inactive: [1] 0.079 | duvelisib 0.193 | gandotinib 0.177 | tozasertib 0.042 | [2] 0.053

SGK3 (UniProt Q96BR1)
inactive: duvelisib 0.075

SIN3B (UniProt O75182)
inactive: crizotinib -0.057 | [1] -0.318 | gandotinib 0.116 | tozasertib -0.095 | doramapimod 0.584 | [2] -0.611

SIK3 (UniProt Q9Y2K2)
inactive: crizotinib 0.04 | [1] 0.236 | duvelisib 0.022 | gandotinib 0.245 | tozasertib -0.137 | doramapimod -0.021 | [2] -0.028

SLC10A3 (UniProt P09131)
inactive: [1] -0.022 | gandotinib 0.004 | tozasertib 0.09 | [2] 0.008

SIAE (UniProt Q9HAT2)
inactive: pictilisib 0.015 | crizotinib 0.16 | [1] -0.161 | gandotinib 0.163 | tozasertib 0.029 | doramapimod 0.067 | bafetinib -0.126 | [2] 0.052

SFXN4 isoform 3 (UniProt Q6P4A7)
inactive: pictilisib 0.093 | crizotinib -0.022 | [1] -0.348 | gandotinib 0.044 | tozasertib 0.297 | doramapimod 0.09 | bafetinib -0.344 | [2] 0

SERPINB7 (UniProt O75635)
inactive: crizotinib -0.349 | doramapimod -0.055

SGSH (UniProt P51688)
inactive: [1] 0.067 | gandotinib 0.043 | [2] 0.133

SLC10A4 (UniProt Q96EP9)
inactive: lapatinib 0.064 | duvelisib 0.032

Reprinted at random: 2 entries already listed
SIAE (UniProt Q9HAT2)
inactive: pictilisib 0.015 | crizotinib 0.16 | [1] -0.161 | gandotinib 0.163 | tozasertib 0.029 | doramapimod 0.067 | bafetinib -0.126 | [2] 0.052

SGSH (UniProt P51688)
inactive: [1] 0.067 | gandotinib 0.043 | [2] 0.133

(listing goes on)

SH2B3 (UniProt Q9UQQ2)
inactive: crizotinib -0.034 | tozasertib 0.14 | doramapimod 0.057

SFT2D1 (UniProt Q8WV19)
inactive: crizotinib -0.022 | duvelisib -0.184 | doramapimod -0.262

SHLD1 (UniProt Q8IYI0)
inactive: duvelisib -0.219 | tozasertib -0.151

SESTD1 (UniProt Q86VW0)
inactive: crizotinib -0.047 | doramapimod 0.082

SH2D3A (UniProt Q9BRG2)
inactive: pictilisib 0.043 | bafetinib 0.034

SHMT2 (UniProt G3V2Y4)
inactive: pictilisib -0.057 | bafetinib 0.011

SIK2 (UniProt Q9H0K1)
inactive: [1] 0.166 | gandotinib 0.051 | tozasertib -0.082 | [2] -0.231

SLAIN2 (UniProt D6RIF6)
inactive: crizotinib 0.073 | doramapimod -0.115
